Patent US20100286152A1, “N-PHENYL HYDRAZIDES AS MODULATORS OF THE GHRELIN RECEPTOR” (Glaxo Group Limited, priority 2007, published 2010)
Some of these results come from one statement about several compounds together.

Amino acid sequences for entries named in this document (tags omitted).
UniProt Q92847, whole entry: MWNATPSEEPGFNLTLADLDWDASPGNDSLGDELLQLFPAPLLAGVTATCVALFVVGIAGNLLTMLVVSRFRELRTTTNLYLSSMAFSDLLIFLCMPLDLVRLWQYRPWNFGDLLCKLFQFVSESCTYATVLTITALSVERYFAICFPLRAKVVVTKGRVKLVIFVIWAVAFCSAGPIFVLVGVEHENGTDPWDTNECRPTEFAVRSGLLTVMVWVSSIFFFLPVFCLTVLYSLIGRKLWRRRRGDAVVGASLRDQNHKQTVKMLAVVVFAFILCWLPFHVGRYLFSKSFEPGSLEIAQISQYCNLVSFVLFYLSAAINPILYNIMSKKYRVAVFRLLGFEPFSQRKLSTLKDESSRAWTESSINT

Target: T1, Human GHS-R (ghrelin receptor) (Homo sapiens, UniProt Q92847)
T1 construct: The full-length gene was transferred into pCDN for expression analysis; expressed in transfected cells; host or cells: U2OS cells transduced with human GHSR BacMam virus
Experiment: GHSR Antagonist BACMAM FLIPR Assay
Format: cell-based
Settings: U2OS cells transiently expressing human GHS-R; inhibition of EC80 concentration of hGhrelin; FLIPR fluorescence

Structure (SMILES) | pIC50
CN1CCN(C(C(=O)NNc2cc(Cl)cc(Cl)c2)c2cccc3c2sc2ccccc23)CC1.O=CO (racemic) [Compound 1, (±)-2-dibenzo[b,d]thien-4-yl-N′-(3,5-dichlorophenyl)-2-(4-methyl-1-pipera-zinyl)acetohydrazide formate] | greater than 5.5
CN1CCN(C(C(=O)NNc2cc(Cl)cc(Cl)c2)c2cccc3c2oc2ccccc23)CC1.O=CO (racemic) [Compound 2, (±)-formic acid-2-dibenzo[b,d]furan-4-yl-N′-(3,5-dichlorophenyl)-2-(4-methyl-1-piperazinyl)acetohydrazide (1:1)] | greater than 5.5
CN1CCN(C(C(=O)NNc2cc(Cl)cc(Cl)c2)c2ccc3ccccc3c2)CC1.O=CO (racemic) [Compound 3, (±)-N′-(3,5-dichlorophenyl)-2-(4-methyl-1-piperazinyl)-2-(2-naphthalenyl)acetohydrazide formate] | greater than 5.5
CN1CCN(C(C(=O)NNc2cc(Cl)cc(Cl)c2)c2cc3ccccc3o2)CC1.O=CO (racemic) [Compound 4, (±)-2-(1-benzofuran-2-yl)-N′-(3,5-dichlorophenyl)-2-(4-methyl-1-piperazinyl)-acetohydrazide formate] | greater than 5.5
CN1CCN(C(C(=O)NNc2cc(Cl)cc(Cl)c2)c2ccc(OC(F)(F)F)cc2)CC1.O=CO (racemic) [Compound 5, (±)-N′-(3,5-dichlorophenyl)-2-(4-methyl-1-piperazinyl)-2-{4-[(trifluoromethyl)-oxy]phenyl}acetohydrazide formate] | greater than 5.5
CN1CCN(C(C(=O)NNc2cc(Cl)cc(Cl)c2)c2cc3ccccc3s2)CC1.O=CO (racemic) [Compound 6, (±)-2-(1-benzothien-2-yl)-N′-(3,5-dichlorophenyl)-2-(4-methyl-1-piperazinyl)-acetohydrazide formate] | greater than 5.5
CN1CCN(C(C(=O)NNc2cc(Cl)cc(Cl)c2)c2ccc3sccc3c2)CC1.O=CO (racemic) [Compound 7, (±)-2-(1-benzothien-5-yl)-N′-(3,5-dichlorophenyl)-2-(4-methyl-1-piperazinyl)-acetohydrazide formate] | greater than 5.5
CN1CCN(C(C(=O)NNc2cc(Cl)cc(Cl)c2)c2ccc3sc4ccccc4c3c2)CC1.O=CO (racemic) [Compound 8, (±)-2-dibenzo[b,d]thien-2-yl-N′-(3,5-dichlorophenyl)-2-(4-methyl-1-pipera-zinyl)acetohydrazide formate] | greater than 5.5
CN1CCN(C(C(=O)NNc2cc(C(F)(F)F)cc(C(F)(F)F)c2)c2ccccc2OC(F)(F)F)CC1 (racemic) [Compound 11, (±)-N′-[3,5-bis(trifluoromethyl)phenyl]-2-(4-methyl-1-piperazinyl)-2-{2-[(trifluoromethyl)oxy]phenyl}acetohydrazide] | greater than 5.5
CN1CCN(C(C(=O)NNc2cc(C(F)(F)F)cc(C(F)(F)F)c2)c2cccc(OC(F)(F)F)c2)CC1 (racemic) [Compound 37, (±)-N′-[3,5-bis(trifluoromethyl)phenyl]-2-(4-methyl-1-piperazinyl)-2-{3-[(trifluoromethyl)oxy]phenyl}acetohydrazide] | greater than 5.5
COc1ccc2cc(C(C(=O)NNc3cc(Cl)cc(Cl)c3)N3CCN(C)CC3)ccc2c1 (racemic) [Compound 38, (±)-N′-(3,5-dichlorophenyl)-2-[6-(methyloxy)-2-naphthalenyl]-2-(4-methyl-1-piperazinyl)acetohydrazide] | greater than 5.5
CN1CCN(C(C(=O)NNc2cc(C(F)(F)F)cc(C(F)(F)F)c2)c2ccc3c(c2)OCO3)CC1.Cl (racemic) [Compound 41, (±)-2-(1,3-Benzodioxol-5-yl)-N′-[3,5-bis(trifluoromethyl)phenyl]-2-(4-methyl-1-piperazinyl)acetohydrazide hydrochloride] | greater than 5.5
